Source: PubChem BioAssay AID1508600 (Functional Genomics Laboratory (NCATS/FGL), 2020)
In all, about 53,000 sequences went through this assay and about 3,700 (7%) were called active.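 The calls were made as follows: active = gene knockdowns whose robust z-score for IL-1 alpha signal is at least 2 or at most -2, so actives lie on both sides; inactive = the rest.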 The list shows a part of the results.

Assay: Components of the Cytosolic LPS Sensing Pathway: Gene Identification via Genome-wide siRNA Screen;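 also: robust z of the log signal after scaling to non-targeting control siRNA wells of the plate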
Settings: RAW264.7 macrophages, IL-1a HTRF, actives lie on both sides, screened at 100 nM (by protocol), cells primed 5 h with Pam3CSK4 first
Method in brief: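 Using IL-1a HTRF as read-out, the screen measured release from RAW264.7 cells after 48h siRNA knockdown (100 nM), 5 h Pam3CSK4 priming and 24 h cytosolic LipidA. Values were expressed relative to negative-control wells as robust z-scores.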

Row | Sequence | z-score
1 | GCUCUCAAUUGAGGAUAAATT against Mthfd1 | inactive: -0.0879
2 | GGAGAUCAUGAAGAUCACATT against Mapk12 | inactive: -0.827
3 | GCUGAGGUUGAACUUUAUUTT against Naa25 | inactive: 1.77
4 | GGAAUAGGGAGGUAACCAGTT against Olfr1394 | inactive: 0.0525
5 | GGCCAACUGUACAAACUCCTT against Tmem120a | inactive: -1.16
6 | GGACUCAAGCAGAUGGUAUTT against 1700018B08Rik | inactive: -0.56
7 | GGAGAAAGCUCGAAAAUGGTT against Prpf8 | inactive: -1.61
8 | GGUUUCCUGAAGUUUUCAATT against Gnaz | active: 3.08
9 | GGACUGGGAAGAUGAUGAATT against Eola1 | inactive: -1.51
10 | CCUGAGAUGUUUCAACUGCTT against Plekha3 | inactive: -0.853
11 | GCUAAGAAACGGAAUUUGGTT against Adam7 | inactive: 0.446
12 | GCUCACCAAUGAAAUUAAUTT against Xpo7 | inactive: -0.981
13 | GAUCAAGGACCGGUACCUGTT against Lmo1 | inactive: 1.34
14 | GGCAUUGAAGGAAGUGAUCTT against Psmg3 | active: -2.9
15 | UGUUUGGGCCCAAAGGCUUTT against Crip1 | inactive: -1.15
16 | GGGAAGAAAUCAACGAUAATT against Gpa33 | inactive: -0.0673
17 | GGGAUGUGGAACGUAUGGUTT against Tmem53 | inactive: 1.04
18 | GGGUGUAGUCCUGAAAGUATT against Arpc5l | active: 2.45
19 | GGAACAGGUAAAGAUCCCATT against Repin1 | inactive: 0.609
20 | GGUGAUGAAGUGCGUCCUGTT against Chga | inactive: -0.396
21 | GGACUUAUCAAGCUGGUUUTT against Rps25 | inactive: -1.48
22 | GGCUUCAAGGGAAAAGCUGTT against Snx32 | inactive: -0.95
23 | GGAAAAUCAACUUCACAAATT against Shox2 | inactive: -0.796
24 | GGAGAAAUCCCUUCACGGUTT against Mas1 | inactive: 0.449
25 | GGUCAUUUUGCAUGAUGUCTT against Trpv3 | inactive: -0.779
26 | GGAGAAACAGCCUAAGAAGTT against Pacsin1 | inactive: -0.424
27 | GGCAGACUUCUACAAGGAATT against Arhgef4 | inactive: 0.518
28 | GGUUGACACAGAUGAAGAGTT against Rdh9 | inactive: -0.171
29 | GCAGCUUCGAAACCUACCATT against Tbc1d10b | inactive: 1.33

Some of the entries so far, comma-delimited:
Row,Sequence,z-score
8,GGUUUCCUGAAGUUUUCAATT against Gnaz,active: 3.08
12,GCUCACCAAUGAAAUUAAUTT against Xpo7,inactive: -0.981
17,GGGAUGUGGAACGUAUGGUTT against Tmem53,inactive: 1.04
22,GGCUUCAAGGGAAAAGCUGTT against Snx32,inactive: -0.95
26,GGAGAAACAGCCUAAGAAGTT against Pacsin1,inactive: -0.424
27,GGCAGACUUCUACAAGGAATT against Arhgef4,inactive: 0.518
